Library compounds against nucleic acid targets

Source: the ROBIN nucleic acid binder screens (doi:10.1002/anie.202211358).

Oligonucleotides screened, 5′ to 3′:
SAM-II: SAM-II riboswitch RNA pseudoknot, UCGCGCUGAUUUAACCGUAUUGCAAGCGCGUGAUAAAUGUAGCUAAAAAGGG. About 200 hits among about 21,000 compounds.
PreQ1: PreQ1 riboswitch RNA pseudoknot, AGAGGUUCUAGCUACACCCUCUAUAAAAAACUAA. From B. subtilis. About 170 hits among about 24,000 compounds.
TPP: TPP riboswitch RNA three-way junction, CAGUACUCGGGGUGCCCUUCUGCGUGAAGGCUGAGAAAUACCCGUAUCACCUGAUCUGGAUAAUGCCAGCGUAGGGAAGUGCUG. About 160 hits among about 24,000 compounds.

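The test is a small-molecule microarray: each compound is printed twice on a reactive slide, and binding shows as fluorescence of the labelled oligonucleotide after washing. The data file lists only calls. An earlier report of the laboratory on the PreQ1, TPP and SAM-II riboswitches (doi:10.1038/s41467-019-09493-3) used 1 µM RNA for 2 h and required a mean Z-score above 3 (spot signal-to-noise against the whole library), a score well above that on a control array, and duplicate spots agreeing (coefficient of variation under 100); it then also set aside compounds that hit other targets, which this list keeps. The cut-offs behind this list may differ. A missing hit is not proof of no binding, and a hit is not a measured affinity.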 Key: 1 = hit, 0 = tested without a hit. The compounds are a random part of those screened. A dash means that no call is listed here.

structure,SAM-II,PreQ1,TPP
C#CC1(N2CCCCC2)CCCCC1,0,0,0
CSCCc1nc(Cn2cc(Cl)c(C)n2)n(CCO)n1,0,0,0
COc1ccc2cc3c(N)nn(C(=O)c4ccc(F)cc4)c3nc2c1,0,0,0
COc1ccc(N2C(=O)CC(SCCN)C2=O)cc1 (stereo not given),0,0,0
CCS(=O)(=O)c1ccc(O)c(Nc2nc(C)nc3c2CCC3)c1,-,0,0
Cc1csc(C2=C(N)N(CCN3CCOCC3)CC2=O)n1,-,0,0
OCC1(CCc2ccccc2)CCN(c2nccc3occc23)CC1,0,0,0
CN(C)CCNc1c([N+](=O)[O-])c(=O)oc2ccccc12,0,0,0
CC(C)c1cc(Nc2ccccc2Cl)n2nc(-c3cccnc3)nc2n1,-,0,0
Cc1cc(C(=O)N2C[C@@H](N)C[C@H]2C(=O)NC(C)C)ccc1N1CCOCC1,0,0,0
CCOC(=O)C1(Cc2ccccc2F)CCCNC1 (stereo not given),0,0,0
Cc1ccccc1-c1noc(-c2nnn(-c3ccccc3C(F)(F)F)c2N)n1,-,0,0
NC(=O)C1=NOC(CO)C1 (stereo not given),0,0,0
Cc1cc2c(c(=O)o1)C(c1cccc(Cl)c1Cl)C(C#N)=C(N)O2 (stereo not given),0,0,0
N#Cc1c(-c2cnc(N3CCCCC3)nc2)cc(-c2ccc[nH]2)nc1N,0,0,0
Cc1cccc2[nH]c(C3CCN(C(=O)[C@@H](N)Cc4c[nH]cn4)CC3)nc12,0,0,0
CC(=Cc1ccco1)c1c(-c2ccccc2)ncn1CC1CCCN(CCO)C1 (stereo not given),0,0,0
Cc1ccc(F)cc1Nc1nc2ccc(Cl)cc2n2cnnc12,-,0,0
CN(C)c1nc2c(c(N(C)Cc3n[nH]c4c3CCCC4)n1)CCNCC2,0,0,0
Cc1n[nH]c(C)c1C(N)C(=O)NCCCN1CCOCC1 (stereo not given),0,0,0
CN(C)c1ccc(C2C(C#N)=C(N)Oc3c2c(=O)oc2ccccc32)cc1 (stereo not given),0,0,0
O=c1cc(Nc2ccccc2)c2ccccc2o1,0,0,0
Cc1nc2nc(CN)nn2c(C)c1CCC(=O)Nc1ccc(Br)cc1,-,0,0
CSc1ccc(C=Cc2nc(N)nc(-c3ccccc3O)n2)cc1,0,0,0
O=C(OCCCNC1=NS(=O)(=O)c2ccccc21)c1ccccc1,0,0,0
Cc1nc(N)sc1-c1csc(Nc2cccc(Cl)c2C)n1,0,0,0
CCOC(=O)C1=C(N)OC2=C(C(=O)CCC2)C1c1cccc(Br)c1 (stereo not given),0,0,0
COc1nc(C)cnc1NS(=O)(=O)c1cccnc1-c1ccc(-c2nnco2)cc1,0,0,0
OCC1(O)CCCN(Cc2ccc(-c3ccccc3)s2)CC1 (stereo not given),0,0,0
CCCCSc1nc(N)cc(N2CCC(O)(CN(C)C)C2)n1 (stereo not given),0,0,0
ClC1=C(Cl)C(Cl)=C(Cl)C1=C/C=C/c1ccccc1,0,0,0
CC1CC(C)OP(=O)(OCCC#N)O1 (stereo not given),0,0,0
O=c1[nH]c2ccc(Cl)cc2c(-c2ccccc2)c1SCCO,0,0,0
CN[C@@H](C)C(=O)N1CCOc2c(O)cc(-c3nc4ccccc4s3)cc2C1,0,0,0
Cc1nnnn1CCCn1ncc(N2CCC(CN)C2)cc1=O (stereo not given),0,0,0
Cc1c(C(C)(C(=O)O)c2c(C)n(C)c3ccccc23)c2ccccc2n1C,0,0,0
CO[C@H]1COC[C@@H]1NC(=O)C1(Oc2ccc(Cl)cc2)CCNCC1,0,0,0
Cc1ccc(F)c(NC(=O)Nc2ccc(-c3cccc4[nH]nc(N)c34)cc2)c1,1,0,1
O=C(NCc1ccco1)Nc1ccc([N+](=O)[O-])cc1,0,0,0
CCCCCCNc1ncc(-c2c[nH]c3ccccc23)s1,-,0,0
[O-][n+]1nc2ccccc2c2ccccc21,0,0,0
Cc1ccc(-c2cc(C(=O)NCCN3CCCCC3CO)[nH]n2)o1 (stereo not given),0,0,0
COc1ccc(-c2noc(CNC3CCCCC3)n2)cc1OC,0,0,0
O=C(Nc1ccccc1)c1cccc(S(=O)(=O)NC[C@@H]2C[C@H](F)CN2)c1,0,0,0
Cc1ccc2nc(CN(C)Cc3cnc(N)nc3)cc(O)c2c1,0,0,0
COc1ccccc1OCC(C)Nc1nc(CO)nc2ccccc12 (stereo not given),0,0,0
C=CCNc1ncnc2c1c(-c1ccccc1)cn2-c1ccccc1Cl,-,0,0
CC(C)c1ccc(-n2nnc(-c3nc(-c4ccccc4Cl)no3)c2N)cc1,-,0,0
O=C(O)c1cccc(N2C(=O)CC(Nc3ccc(F)cc3)C2=O)c1 (stereo not given),0,0,0
CCSc1ccc(C(=O)N2CCC3(CC2)[C@H](O)C[C@@H]3O)s1,0,0,0
Cc1cc(C)cc(OCC(O)Cn2c(C3CC(=O)N(Cc4ccccc4)C3)nc3ccccc32)c1 (stereo not given),-,0,0
Cc1ccc(OCCn2c(CO)nc3ccccc32)c(C)c1,0,0,0
CC(C)c1nccn1Cc1cc(C(=O)NC(CO)c2cccnc2)n[nH]1 (stereo not given),0,0,0
Cc1cc2ncn(CC(O)COc3cccc(Cl)c3)c2cc1C (stereo not given),0,0,0
COC(=O)Cc1[nH]c(Cl)nc1C(N)=O,0,0,0
O=C(CC1=CCNCC1)N1CCC(c2n[nH]c(=O)n2-c2ccccc2)CC1,0,0,0
Cn1c(=O)[nH]c(=O)c2c1nc(Br)n2CC(O)COc1ccc(F)cc1 (stereo not given),0,0,0
COc1ccc2cc3c(N)nn(C(=O)c4ccncc4)c3nc2c1,0,0,0
N#CN=C(N)c1sc2nc3c(cc2c1N)CCCC3,0,0,0
COc1ccc(-c2cnc(NCc3ccccc3Cl)n2C)cc1,0,0,0
O=C(O)c1ccc2c(c1)ncn2CCO,0,0,0
CCCC=CCN1CCC2(CCNCC2)C1,0,0,0
Cn1c2c(c(=O)n(C)c1=O)NC1(N2)C(=O)Nc2ccccc21 (stereo not given),0,0,0
Nc1nc(-c2ccccc2Cl)cs1,0,0,0
CC(O)c1cccc(NC(=O)c2cnn3c2N[C@@H](c2cccs2)C[C@H]3C(F)(F)F)c1 (stereo not given in full),0,0,0
COC(=O)c1cc(NC2OC(=O)c3ccccc32)cc(C(=O)OC)c1 (stereo not given),0,0,0
Cc1[nH]nc2c1C(c1ccncc1)C(C#N)=C(N)O2 (stereo not given),0,0,0
Cc1ncsc1CCn1cnc(-c2ccccc2)c1-c1ccc(CO)o1,0,0,0
COc1c(C)cc(-c2cc(N3CCN(C)CC3)nc(N)n2)cc1C,0,0,0
OCC(Cc1ccco1)Cn1ccnc1-c1c(F)cccc1F (stereo not given),0,0,0
CC(C)n1nc(-c2ccc3oc(N)nc3c2)c2c(N)ncnc21,0,0,0
N#CC1=C(N)Oc2ccc3ccc(O)cc3c2C1c1ccccc1 (stereo not given),0,0,0
CC(C)c1ccc(NC(=O)CN(C)S(=O)(=O)c2cc(Br)cnc2N)cc1,-,0,0
Cc1n[nH]c(C)c1CCNc1nccc(N2CCC(O)CC2)n1,0,0,0
Fc1ccc(Nc2nc3ccccc3c3nncn23)cc1,0,0,0
CN(C)c1ccc(Nc2nc(-c3cccs3)cs2)cc1,0,0,0
CC1(C)CNC(=O)c2nc(C(O)c3ccccc3)[nH]c2C1 (stereo not given),0,0,0